According to patent US20170290821A1 (priority 2014, published 2017):

Assay: Cytotoxicity test (Cell Counting Kit-8), HEK293
Assay type: cell-based
Details: human, HEK293 cells, 293 (HEK293) cells, read-out: CC50 (50% cytotoxicity concentration)
Procedure: First, as test compound solutions, test compounds were prepared in 1% dimethylsulfoxide-containing MEMs so that a final concentration was 1000, 100, 10, 1, 0.1, 0.01, or 0.001 μM.
Cell fluids in which MDCK cells, A549 cells, and HEK293 cells were prepared at concentrations of 6.25×10^5 cells/mL, 2.5×10^6 cells/mL, and 1.25×10^5 cells/mL in minimum essential mediums (MEMs) were added to a 96-well plate at 0.1 ml/well and the cells were seeded. The cells in the 96-well plate were cultured in a carbon dioxide incubator at 37° C. and washed with MEM the day after the seeding date. In the washed cells in the 96-well plate, 0.1 mL of each test compound solution was added to three wells for each concentration and the cells in the 96-well plate were then cultured in a carbon dioxide incubator at 37° C. for 48 hours. After the culture, a Cell Counting Kit-8 solution (commercially available from Dojindo Molecular Technologies, Inc.) was added to each well at 10 μL and culture was additionally performed at 37° C. for several hours. After the culture, an absorbance at 450 nm of a solution of each well in the 96-well plate was measured using a microplate reader. An absorbance value when a solvent (1% dimethylsulfoxide-containing MEM) was added in place of the test compound was set to 100% at which the whole cells survived. […]

## C[C@@H]1CCN(C(=O)CC#N)C[C@@H]1N(C)c1ncnc2[nH]ccc12 [Compound J1, 3-((3R,4R)-4-methyl-3-(methyl(7H-pyrrolo[2,3-d]pyrimidin-4-yl)amino)piperidin-1-yl)-3-oxopropanenitrile]
  CC50 at 48 h: > 316 µM
